Percent effect of library compounds

Measurements from “University of Dundee, Small-Polar-MMV Screening Library” (2021), ChEMBL document CHEMBL3988442.

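Phenotypic screen: M. tuberculosis growth, cholesterol and DPPC medium, 4 days; the read-out is not stated. Tested at 50 µM. The record gives no direction; compounds that gave an IC50 in retests scored well above the rest, so higher reads as more growth inhibition. Size under these conditions: about 69,000 compounds, about 370 of them at 50% or above in at least one test.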

Each number is a percent effect as filed.
The controls that fix the scale are not given in the record; negative values are as filed.
Compounds were drawn at random from those tested, without regard to their results.
Two or more numbers in one place are separate tests of the same structure; such repeats can differ widely.

| # | compound | effect |
|---|---|---|
| 1 | `CCNC(c1cccnc1)c1ccc(F)cc1F` (centres undefined) | 0.6309 |
| 2 | `COCCNC(=O)c1cc(-c2ccc3c(c2)CCO3)n[nH]1` | -36.75 |
| 3 | `Cc1cc(C(=O)Nc2cc(C3CC3)n[nH]2)c2c(C)nn(C)c2n1` | -12.9 |
| 4 | `Cc1cc(-n2nc(C3CC3)nc2-c2csnn2)ccn1` | 9.528 |
| 5 | `CNC(=O)c1cccnc1NCCOc1ccc(CC#N)cc1` | 26.52 |
| 6 | `COCC(=O)N1CCC(c2cc3ncccc3c(O)n2)CC1` | -2.986 |
| 7 | `O=C(c1ccccn1)N1CCC(S(=O)(=O)c2ccccc2)C1` (centres undefined) | 10.18 |
| 8 | `COc1ccc(C(C)Nc2ncnc3c2NC(=O)CN3)cc1` (centres undefined) | -7.721 |
| 9 | `COc1ccccc1N1CCCC(Nc2nccnc2C#N)C1` (centres undefined) | 9.3 |
| 10 | `CC(C)(C)OC(=O)NC1CCC(NC(=O)c2ccc[nH]2)CC1` (centres undefined) | -16.48 |
| 11 | `CS(=O)(=O)c1nccn1Cc1ccc(C(N)=O)cc1` | 1.935 |
| 12 | `CN(C(=O)CNCCn1cccn1)C1(C#N)CCCCC1` | 7.868 |
| 13 | `CNc1cncc(C2CCCN2S(=O)(=O)c2ccc(F)cc2)n1` (centres undefined) | -0.6826 |
| 14 | `Cc1cccc(C(C(=O)NCCCc2ccncc2)N(C)C)c1` (centres undefined) | 5.996 |
| 15 | `Cc1cccc(CC(=O)N2CCCCC2CN)c1.Cl` (centres undefined) | 15.74 |
| 16 | `O=C(O)C(F)(F)F.[H][C@@]12CCN(CC(C)C)[C@@]1([H])CCN2S(=O)(=O)c1cn(C)cn1` | 4.704 |
| 17 | `CN(C)CCOc1ccc(CNC(=O)c2cccc3[nH]ncc23)cc1` | -27.26 |
| 18 | `CCO[C@H]1CCN(S(=O)(=O)c2cn(C)cn2)[C@H]1Cc1ccccc1.O=C(O)C(F)(F)F` | 16.71 |
| 19 | `[H][C@@]12CCN(C(=O)c3ccccc3)C[C@@]1([H])O[C@H](c1nccs1)C2` | -19.45 |
| 20 | `COCC(=O)N1CCN(C)c2ncccc2C1` | -5.4 |
| 21 | `CS(=O)(=O)CCN1CCC(Nc2c(Cl)cccc2C#N)CC1` | 0.9749 |
| 22 | `O=C(C1CCC2(CCN(CC3CCOCC3)CC2)O1)N1CCCC1.O=C(O)C(F)(F)F` (centres undefined) | 2.047 |
| 23 | `Cc1cc(CNC(=O)CN2CCCC(Cn3cncn3)C2)ccc1F` (centres undefined) | -12.23 |
| 24 | `COc1ccccc1CNc1ncc(-c2cc(C)no2)c(C(C)C)n1` | -2.792 |
| 25 | `O=C(O)C(F)(F)F.[H][C@]12C[C@H](C(=O)NC)N(C(C)=O)[C@@]1([H])CN(Cc1c(C)noc1C)C2` | -11.97 |
| 26 | `O=C(NC1CCCC1)c1nc2c(o1)CN(CCO)C2` | -10.7 |
| 27 | `Cc1nnc(CN2CCC(N(C)Cc3nnc(C4CC4)n3C)C2)o1` (centres undefined) | -4.883 |
| 28 | `CN1CCc2nc(C3CCCN(S(=O)(=O)N4CCCC4)C3)ncc2C1` (centres undefined) | -21.36 and 9.605 |
| 29 | `O=C(NCc1cc[nH]n1)NCC(O)c1ccccc1F` (centres undefined) | -5.22 |
| 30 | `c1ccc2c(N3CCOC(Cn4cccn4)C3)ncnc2c1` (centres undefined) | -6.5 |
| 31 | `CCc1nccn1C1CCCN(C(=O)c2cnc3onc(C)c3c2)C1` (centres undefined) | 19.1 |
| 32 | `COc1ccc(OCC(C)NS(C)(=O)=O)cc1` (centres undefined) | 20.36 |
| 33 | `O=C(c1csc(-c2ccc(C(F)(F)F)cc2)n1)N1CCCNCC1` | 12.3 |
| 34 | `CC(C)(C(N)=O)S(=O)(=O)c1ccc(Br)cc1` | -6.507 |
| 35 | `Cc1cnc(N2Cc3cnn(Cc4ccc(F)cc4)c3C2)nc1N(C)C` | 16.63 and 30.07 |
| 36 | `COC(=O)c1cccc(C(=O)N(C)Cc2cccc(O)c2)c1` | 22.79 |
| 37 | `CN(C1CCCCC1)S(=O)(=O)NCC1Cc2ccccc2O1` (centres undefined) | 16.98 |
| 38 | `COc1ccccc1C(=O)Nc1cc(CC(C)C)nn1C` | -9.929 |
| 39 | `COc1ccc(F)cc1C(=O)N(C)Cc1cc(C)on1` | -28.12 |
| 40 | `CCN(Cc1cccs1)C(=O)c1ccc(=O)n(C)c1` | -15.52 |
| 41 | `Cc1c(NC(=O)NC2CCOCC2)cccc1C(=O)N1CCCC1` | -50.34 |
| 42 | `COCCOc1cccc(C(=O)N2CCCCC2c2nccs2)c1` (centres undefined) | -27.26 |
| 43 | `c1ccc(CN2CCC(CNc3ncnc4c3CCNCC4)CC2)cc1` | 7.363 |
| 44 | `CCOc1ccc(-n2ccc3nc(N4CCCC4)ncc3c2=O)cc1` | 1.586 and 11.61 |
| 45 | `O=C(C1CCOC1)N1CCN(Cc2ccc3c(c2)CCO3)CC1` (centres undefined) | -24.58 |
| 46 | `CC(C)c1n[nH]c(C2CN(CC(=O)N(C)Cc3ccco3)CCO2)n1` (centres undefined) | -1.122 |
| 47 | `Cc1nc(C2CCCN(C(=O)c3cccc(S(C)(=O)=O)c3)C2)no1` (centres undefined) | 2.525 |
| 48 | `Cc1ncnc2c1CCN(C(=O)N(C)C)CC2` | -5.367 |
| 49 | `Cn1c(C(=O)N2CCOCC2)nc2c1CCN(c1ncccn1)C2` | -14.44 |
| 50 | `O=C1CC[C@@H](C(=O)N2CCC(Cn3cc(C4CCCCC4)nn3)CC2)N1` | -11.74 |
| 51 | `CN(C)C(=O)C1CCN(Cc2csc(C(C)(C)C)n2)CC1` | 23.03 |
| 52 | `CCOCC1CN(c2ncccn2)Cc2cnn(CC3CCOCC3)c21` (centres undefined) | -23.63 |
| 53 | `COCc1nc(C(=O)N2CCCC2c2ccc(OC)cc2)cs1` (centres undefined) | -1.06 |
| 54 | `CC(=O)NCc1ccc(C(=O)N2CCCC2c2cnn(C)c2)s1` (centres undefined) | -3.236 |
| 55 | `O=C(NCCCN1CCOCC1)C1CCCN(Cc2ccco2)C1` (centres undefined) | -2.812 and 3.465 |
| 56 | `COc1c(C(=O)N2CCNC(=O)C2)cnc2c1c(C)nn2C` | -22.68 |
| 57 | `Cc1ccc(CC(=O)N2CCOC(c3ncc(CN(C)C)[nH]3)C2)s1` (centres undefined) | -13.84 |
| 58 | `Cc1n[nH]c(C)c1-c1cnc(CC2CCN(C)C2)cn1` (centres undefined) | 14.8 |
| 59 | `O=C(NCC1CCOC1)Nc1ccc(Oc2ccc(F)cc2)nc1` (centres undefined) | -15.18 |
| 60 | `CN(C)C(=O)N1CCC(c2nc3ccc(N4CCCC4)cn3n2)CC1.O=C(O)C(F)(F)F` | -2.96 |
| 61 | `CCOc1ccc(Cl)cc1CCNC(=O)Cn1nc(C)ccc1=O` | 8.789 |
| 62 | `O=C(O)C(F)(F)F.[H][C@@]12CCN(CC3CCOCC3)C[C@@]1([H])[C@H](C(=O)N1CCCO1)CCO2` | -17.6 |
| 63 | `Cc1ccc2c(n1)N(CCN(C)C)CCN(C(=O)N1CCOCC1)C2` | -3.503 and -13.65 |
| 64 | `C[C@H](c1ccc(F)cc1)n1c(C2CCN(C)CC2)n[nH]c1=O` | -20.49 |
| 65 | `Cn1cc(C2CCCN2C(=O)Cn2c(=O)oc3ccccc32)cn1` (centres undefined) | 8.426 |
| 66 | `O=C(CCn1c(=O)oc2ccccc21)NCC(O)c1ccc(F)c(F)c1` (centres undefined) | -22.41 |
| 67 | `CC(c1ccco1)N(C)Cc1nc2c(cnn2C)c(=O)[nH]1` (centres undefined) | 11.02 |
| 68 | `CCNc1ncc(C(=O)NCCNc2ccncc2C)cn1` | 12.74 |
| 69 | `COc1ccccc1CC(=O)N1CCC(NCc2cc[nH]c2)CC1` | -3.037 |
| 70 | `COC(=O)c1cc(C(=O)N2CCOCC2(C)C)n(-c2ccccc2)n1` | 7.179 |
| 71 | `[H][C@]12CC[C@]([H])(CN(c3ncccn3)C1)N(CCOC)C2=O` | -4.646 and -18.97 |
| 72 | `Cl.Cl.[H][C@@]12CNC[C@]1([H])N(Cc1ccsc1)CCO2` | -1.035 |
| 73 | `CCN(Cc1nccn1C)C(=O)c1ccc(NCCc2c[nH]cn2)nc1` | -12.31 |
| 74 | `Cc1cc(C)c(CNC(=O)N2CCCC2c2ccc(F)cc2)c(=O)[nH]1` (centres undefined) | 18.72 |
| 75 | `Cc1cc(C)n(CC2CCCN2CCS(=O)(=O)c2ccccc2)n1` (centres undefined) | 11.39 |
| 76 | `[H][C@]12CC[C@]([H])(C1)N(C(=O)c1cccnc1-c1ccc(OC)nc1)C2` | -20.79 and -8.97 |
| 77 | `Cc1noc(C)c1C(=O)N(C)Cc1nc(-c2ccccn2)no1` | 6.601 |
| 78 | `Cc1cccc2c(=O)c(C(=O)N3CCCC4(CN(C)C(=O)O4)C3)c[nH]c12` (centres undefined) | -23.22 |
| 79 | `CC(C)n1[nH]c(=O)c2c1NC(=O)CC2c1ccncc1` (centres undefined) | -13.56 |
| 80 | `CCS(=O)(=O)N1CCC2(CN(c3cc(OC)ncn3)C2)C1` | 8.145 and -21.28 |
| 81 | `O=C(CCc1ccco1)N1CCc2[nH]nc(COc3ccccc3)c2C1` | -22.8 |
| 82 | `Fc1ccc(C(CNc2ccncn2)N2CCCCC2)cc1` (centres undefined) | -24.38 |
| 83 | `FC(F)(F)C1CCCn2c(CNCc3ccco3)nnc21` (centres undefined) | -11.93 |
| 84 | `Cc1nc(C)n(CC2CCCCN2CC(=O)NC(C2CC2)C2CC2)n1` (centres undefined) | -11.42 |
| 85 | `COCCC(=O)N1CCC2(CCN(Cc3cccc(F)c3)CC2)C1.O=C(O)C(F)(F)F` | -3.267 and -12.11 |
| 86 | `O=C(CCNC(=O)c1ccoc1)Nc1cc(F)ccc1F` | 8.662 |
| 87 | `C1=C(c2c[nH]c3ncccc23)CCN(Cc2nnc(C3CC3)o2)C1` | 6.561 |
| 88 | `O=C(c1cc[nH]n1)N1CCCC1c1ccccn1` (centres undefined) | 4.826 |
| 89 | `Cc1noc(C)c1CNc1cccc(C(=O)N(C)c2ccccc2)c1` | -15.22 |
| 90 | `CC(C)c1nnc2n1CCN(Cc1nc3c(F)cccc3[nH]1)C2` | 0.938 |
| 91 | `O=C(O)C(=O)O.c1csc(-c2noc(C3CN(Cc4ccc5c(c4)CCO5)C3)n2)c1` | 34.64 |
| 92 | `CS(=O)(=O)N1CCC(CNc2c(Cl)cccc2C#N)CC1` | 14.88 |
| 93 | `O=C(c1ccc(Cl)cc1)N1CCC(N2CCNC2=O)CC1` | -1.87 |

Some entries from above, unchanged:

Result for COCCNC(=O)c1cc(-c2ccc3c(c2)CCO3)n[nH]1 was -36.75%.
Result for Cc1nc(C2CCCN(C(=O)c3cccc(S(C)(=O)=O)c3)C2)no1 (centres undefined) was 2.525%.
Result for Cc1cc(C)c(CNC(=O)N2CCCC2c2ccc(F)cc2)c(=O)[nH]1 (centres undefined) was 18.72%.
Result for [H][C@@]12CCN(C(=O)c3ccccc3)C[C@@]1([H])O[C@H](c1nccs1)C2 was -19.45%.
Result for Fc1ccc(C(CNc2ccncn2)N2CCCCC2)cc1 (centres undefined) was -24.38%.
Result for CN(C)CCOc1ccc(CNC(=O)c2cccc3[nH]ncc23)cc1 was -27.26%.
Result for CS(=O)(=O)c1nccn1Cc1ccc(C(N)=O)cc1 was 1.935%.